In publication PMC9527117:
Results are given in words; binding and its absence hold for the method and conditions named. In cells and extracts the contact can be indirect. Some binding calls cover weakened binding; strength is not graded here.

The chains behind the UniProt entries cited, without tags or fusion partners.
UniProt Q2EJA0: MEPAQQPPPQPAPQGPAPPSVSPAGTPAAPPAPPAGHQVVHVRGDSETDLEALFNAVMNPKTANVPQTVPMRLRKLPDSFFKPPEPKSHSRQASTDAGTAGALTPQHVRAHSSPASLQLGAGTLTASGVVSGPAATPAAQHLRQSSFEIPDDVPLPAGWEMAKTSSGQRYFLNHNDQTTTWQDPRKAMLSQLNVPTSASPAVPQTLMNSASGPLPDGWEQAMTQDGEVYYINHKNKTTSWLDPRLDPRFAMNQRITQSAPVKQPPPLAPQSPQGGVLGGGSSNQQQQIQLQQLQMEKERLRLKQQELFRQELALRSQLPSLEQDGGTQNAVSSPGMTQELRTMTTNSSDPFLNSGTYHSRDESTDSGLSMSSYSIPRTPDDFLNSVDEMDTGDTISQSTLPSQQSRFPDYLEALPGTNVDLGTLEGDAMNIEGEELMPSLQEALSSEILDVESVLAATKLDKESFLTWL
UniProt P63104: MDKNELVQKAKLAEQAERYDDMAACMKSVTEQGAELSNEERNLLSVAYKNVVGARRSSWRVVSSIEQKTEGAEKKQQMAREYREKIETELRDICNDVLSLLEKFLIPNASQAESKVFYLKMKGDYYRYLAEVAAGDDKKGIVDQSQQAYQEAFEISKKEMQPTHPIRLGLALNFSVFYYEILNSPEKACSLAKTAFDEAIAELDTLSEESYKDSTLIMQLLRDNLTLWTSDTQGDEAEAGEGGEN

Target: YAP phosphorylated at serine 127 (rat (endogenous in rat podocytes)) (UniProt Q2EJA0)
Assay: co-IP; rat podocytes after intervention with shGFP-sEVs or sh14-3-3ζ-sEVs; cell pellet in Co-IP buffer (Pierce), supernatant with the indicated primary antibodies at 4°C overnight, 30 μL protein A/G gel at 4°C for 4 h, 4 washes, western blot; which protein was precipitated is not told

binding: binds
Substance: 14-3-3ζ (from UniProt P63104 1-245)
